The supplement of paper PMC9015667
Structures can show the parent of a compound that is named as a salt. Some of the results follow. Repeats are few or missing, and single values can be far off.

Legend:
Assay in all cases: reduction in cell viability relative to untreated/vehicle; higher = more growth inhibition
Conditions in all cases: 200 nM; 72 h
M229P = system: M229P (parental melanoma line)
M229R = system: M229R (matched melanoma line resistant to BRAF inhibitors)
M238P = system: M238P (parental melanoma line)
M238R = system: M238R (matched melanoma line resistant to BRAF inhibitors)
M249P = system: M249P (parental melanoma line)
M249R = system: M249R (matched melanoma line resistant to BRAF inhibitors)
UACC62P = system: UACC62P (parental melanoma line)
UACC62R = system: UACC62R (matched melanoma line resistant to BRAF inhibitors)

Row | SMILES | reduction in cell viability (M229P) | reduction in cell viability (M229R) | reduction in cell viability (M238P) | reduction in cell viability (M238R) | reduction in cell viability (M249P) | reduction in cell viability (M249R) | reduction in cell viability (UACC62P) | reduction in cell viability (UACC62R)
1 | CN(C)c1ccc(Nc2nc(N)n(C(=O)c3c(F)cccc3F)n2)cc1 | < 0% | < 0% | < 0% | < 0% | < 0% | < 0% | < 0% | < 0%
2 | C=CC(=O)Nc1cc(NC(=O)c2ccc(C)c(NC(=O)c3ccno3)c2)cc(C(F)(F)F)c1 | < 0% | < 0% | < 0% | < 0% | < 0% | < 0% | < 0% | < 0%
3 | NS(=O)(=O)c1cccc2c1C(=O)c1cccc(O)c1C2=O | 71.3% | 47.4% | 90.9% | 96.8% | 25.8% | 61.1% | 89% | 98.2%
4 | Cc1cc(-c2ccc(CC(=O)Nc3ccc(-c4cccnc4)cc3)cc2)ccn1 | < 0% | < 0% | < 0% | < 0% | < 0% | < 0% | < 0% | < 0%
5 | CNC(=O)c1cccc(-c2ccc3c(N4CCOC[C@@H]4C)nc(N4CCOC[C@@H]4C)nc3n2)c1 | < 0% | 38.9% | 14% | 12.3% | 1.47% | 35.6% | 3.38% | 5.77%
6 | CC1=C(/C=C/C(C)=C/C=C/C(C)=C/C(=O)Nc2ccc(O)cc2)C(C)(C)CCC1 [Fenretinide] | < 0% | < 0% | < 0% | < 0% | < 0% | < 0% | < 0% | < 0%
7 | N#C/C(=C(/O)c1ccc(Cl)cc1Cl)c1nc2cc(Cl)ccc2c(=O)[nH]1 [Cilliobrevin D] | < 0% | < 0% | < 0% | < 0% | < 0% | < 0% | < 0% | < 0%
8 | Cc1coc2c1C(=O)C(=O)c1c-2ccc2c(C)cccc12 [Tanshinone I] | < 0% | < 0% | < 0% | < 0% | < 0% | 5.26% | < 0% | < 0%
9 | O=C(O)C1=C[C@@H](O)[C@@H](O)[C@H](O)C1 [Shikimic acid] | < 0% | < 0% | < 0% | < 0% | < 0% | < 0% | < 0% | < 0%
10 | N[C@@H]1CN(c2c(F)cc3c(=O)c(C(=O)O)cn([C@@H]4C[C@@H]4F)c3c2Cl)CC12CC2 [Sitafloxacin] | < 0% | < 0% | < 0% | < 0% | < 0% | < 0% | < 0% | < 0%
11 | NC(=O)Nc1sc(-c2ccc(F)cc2)cc1C(N)=O | < 0% | < 0% | < 0% | < 0% | < 0% | 6.77% | < 0% | < 0%
12 | CCC(=C/[C@H](C)C/C=C/C(C)=C/[C@@H](C)C(=O)[C@@H](C)[C@H](O)[C@@H](C)C/C(C)=C/C(=O)O)/C=C/[C@@H]1OC(=O)C=C[C@@H]1C [Elactocin] | 72.7% | 71.6% | 81.2% | 45.7% | 58.1% | 71.2% | 54% | 88.6%
13 | CCCCCCCCOc1ccccc1C(=O)Nc1ccc(C(=O)OCC[N+](C)(CC)CC)cc1 [Octylonium bromide] | < 0% | < 0% | < 0% | < 0% | < 0% | < 0% | < 0% | < 0%
14 | O=S(=O)(c1cccc2cnccc12)N1CCCNCC1 [Fasudil hydrochloride] | < 0% | < 0% | < 0% | < 0% | < 0% | < 0% | < 0% | < 0%
15 | CC(C)(C)C(=O)Oc1ccc2c(c1)nc(NC(=O)c1cccc([N+](=O)[O-])c1)n2CCCO | < 0% | < 0% | < 0% | < 0% | < 0% | < 0% | < 0% | < 0%
16 | C/C(=C\C(=O)Nc1ccccc1C(=O)O)c1ccc2ccccc2c1 | < 0% | < 0% | < 0% | < 0% | < 0% | < 0% | < 0% | < 0%
17 | CCCCS(=N)(=O)CCC(N)C(=O)O [L-Buthionine-sulfoximine] | < 0% | < 0% | < 0% | < 0% | < 0% | < 0% | < 0% | < 0%
18 | CN(C/C=C/C#CC(C)(C)C)Cc1cccc2ccccc12 [Terbinafine hydrochloride] | < 0% | < 0% | < 0% | < 0% | < 0% | < 0% | < 0% | < 0%
19 | Cc1cc(N2CCOCC2)cc2[nH]c(-c3c(NC[C@@H](O)c4cccc(Cl)c4)cc[nH]c3=O)nc12 | < 0% | 2.75% | 7.08% | 0.55% | < 0% | < 0% | 9.87% | < 0%
20 | CCCc1nc(C(C)(C)O)c(C(=O)O)n1Cc1ccc(-c2ccccc2-c2nnn[nH]2)cc1 [Olmesartan] | < 0% | < 0% | < 0% | < 0% | < 0% | < 0% | < 0% | < 0%
21 | CC(C)Cc1ccc(C(C)C(=O)O)cc1 (stereo not drawn) [Ibuprofen lysine] | < 0% | < 0% | < 0% | < 0% | < 0% | 2.61% | 1.83% | < 0%

Row | SMILES | reduction in cell viability (M229P) | reduction in cell viability (M229R) | reduction in cell viability (M238P) | reduction in cell viability (M238R) | reduction in cell viability (M249P) | reduction in cell viability (M249R) | reduction in cell viability (UACC62P) | reduction in cell viability (UACC62R)
22 | CCC(C)(C)c1ccc(CC(C)CN2C[C@@H](C)O[C@@H](C)C2)cc1 (stereo partly drawn) [Amorolfine hydrochloride] | < 0% | < 0% | < 0% | < 0% | < 0% | < 0% | < 0% | < 0%
23 | Cc1cc(C(=O)NOCCO)c(Nc2ccc(I)cc2F)n(C)c1=O | 34% | 14.6% | 39.6% | < 0% | 79.2% | 79.5% | 63.5% | 55.1%
24 | CC(C)(C)COc1ccc(-n2cc(C(=O)O)cn2)cc1C#N [Piraxostat] | < 0% | < 0% | < 0% | < 0% | < 0% | < 0% | < 0% | < 0%
25 | Cc1ccc(NC(=O)Nc2cc(C(F)(F)F)ccc2F)cc1Nc1ccc2c(c1)NC(=O)/C2=C\c1ccc[nH]1 | < 0% | < 0% | < 0% | < 0% | < 0% | 0.14% | < 0% | < 0%
26 | CNC(=O)c1cc(Oc2ccc(NC(=O)Nc3ccc(Cl)c(C(F)(F)F)c3)c(F)c2)ccn1 [Regorafenib (BAY 73-4506)] | < 0% | < 0% | < 0% | < 0% | < 0% | < 0% | < 0% | < 0%
27 | CC(=O)[C@H]1CC[C@H]2[C@@H]3CCC4=CC(=O)CC[C@]4(C)[C@H]3CC[C@]12C [Progesterone] | < 0% | < 0% | < 0% | < 0% | < 0% | < 0% | < 0% | < 0%
28 | CCN(CC)Cc1ccc2cc(COC(=O)Nc3ccc(C(=O)NO)cc3)ccc2c1 [ITF2357 (Givinostat)] | 5.84% | 26.7% | 32.4% | < 0% | 38.4% | 41% | 31.3% | 56.5%
29 | CNC[C@H](O)c1ccc(O)c(O)c1 [Epinephrine] | < 0% | < 0% | < 0% | < 0% | < 0% | < 0% | < 0% | < 0%
30 | C[C@@H](NCc1cc2ccccc2[nH]1)c1cccc2ccccc12 [Calindol] | < 0% | < 0% | < 0% | < 0% | < 0% | < 0% | < 0% | < 0%
31 | N#Cc1c(NC(=O)c2cccc3ccccc23)sc2c1CCCC2 | 14.8% | 38% | 55.1% | 52.4% | 13.3% | 31.9% | 26.9% | 60.3%
32 | Cc1cccc(-c2[nH]c(C(C)(C)C)nc2-c2ccc3c(c2)OCO3)n1 | < 0% | < 0% | 2.94% | < 0% | 25.1% | < 0% | < 0% | 8.16%
33 | COc1cc(O)c2c(c1)[C@H]1O[C@@H]1C[C@H](O)[C@H](O)C(=O)/C=C\C[C@H](C)OC2=O [Hypothemycin] | 15.9% | 2.65% | 34.7% | < 0% | 30.8% | < 0% | 41.2% | 5.02%
34 | Nc1nc2ccc(OC(F)(F)F)cc2s1 [Riluzole] | < 0% | < 0% | < 0% | < 0% | < 0% | < 0% | < 0% | < 0%
35 | CC[C@@]1(O)C(=O)OCc2c1cc1n(c2=O)Cc2cc3cc(O)ccc3nc2-1 [10-hydroxycamptothecin] | < 0% | 10.9% | 77% | 47.7% | 25.8% | 57.6% | 60.9% | 72.6%
36 | C[C@H]1[C@H](C)CC[C@]2(C(=O)O)CC[C@]3(C)C(=CC[C@@H]4[C@@]5(C)C[C@@H](O)[C@H](O)[C@@](C)(CO)[C@@H]5CC[C@]43C)[C@H]12 [Asiatic acid] | < 0% | < 0% | < 0% | < 0% | < 0% | < 0% | < 0% | < 0%
37 | O=C(O)CCc1ccc(NCc2cccc(Oc3ccccc3)c2)cc1 | < 0% | < 0% | < 0% | < 0% | < 0% | < 0% | < 0% | < 0%
38 | O=C1CCc2cc(OCCCCc3nnnn3C3CCCCC3)ccc2N1 [Cilostazol] | < 0% | 19.2% | < 0% | < 0% | < 0% | < 0% | < 0% | < 0%
39 | COc1c(C)c2c(c(O)c1C/C=C(\C)CCC(=O)OCCN1CCOCC1)C(=O)OC2 [Mycophenolate mofetil] | 9.7% | < 0% | < 0% | < 0% | < 0% | 20% | 8.92% | < 0%
40 | NCCc1ccc(O)c(O)c1 [Dopamine HCl] | < 0% | < 0% | < 0% | < 0% | < 0% | < 0% | 7.05% | < 0%
41 | C[C@H]1[C@H](OC(=O)CCC(=O)O)O[C@@H]2O[C@@]3(C)CC[C@H]4[C@H](C)CC[C@@H]1[C@@]24OO3 [Artesunate] | < 0% | < 0% | < 0% | < 0% | 5.09% | < 0% | 28.8% | < 0%

Part of the list above in order of number of heavy atoms, ascending.
Row | SMILES | reduction in cell viability (M229P) | reduction in cell viability (M229R) | reduction in cell viability (M238P) | reduction in cell viability (M238R) | reduction in cell viability (M249P) | reduction in cell viability (M249R) | reduction in cell viability (UACC62P) | reduction in cell viability (UACC62R)
40 | NCCc1ccc(O)c(O)c1 [Dopamine HCl] | < 0% | < 0% | < 0% | < 0% | < 0% | < 0% | 7.05% | < 0%
31 | N#Cc1c(NC(=O)c2cccc3ccccc23)sc2c1CCCC2 | 14.8% | 38% | 55.1% | 52.4% | 13.3% | 31.9% | 26.9% | 60.3%
36 | C[C@H]1[C@H](C)CC[C@]2(C(=O)O)CC[C@]3(C)C(=CC[C@@H]4[C@@]5(C)C[C@@H](O)[C@H](O)[C@@](C)(CO)[C@@H]5CC[C@]43C)[C@H]12 [Asiatic acid] | < 0% | < 0% | < 0% | < 0% | < 0% | < 0% | < 0% | < 0%
